Experimental data taken from PubChem BioAssay AID1259415 (National Center for Advancing Translational Sciences (NCATS), 2018).
In all, about 410,000 compounds went through this assay and about 18,000 (4.4%) were called active. The inconclusive results got no clear call from the source; some entries with a clear call stand among them for comparison. No stated cut-off is given here; in the data, active means activity change below about -60%; inconclusive means no clear call, values can overlap the other calls; inactive means above about -39%.

Assay: qHTS Assay for inhibitors of the human cytomegalovirus (HCMV)
Conditions: HFF cells, HCMV-luciferase reporter, 72 h; at 57.5 µM; stronger effect = lower value
In short: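 Cell-based, HFFs, 1000 cells/well, 16 h 37C; cpds in DMSO + HCMV-luc, MOI 1 PFU/cell; 72 h 37C; OneGlo luminescence after 5 min RT; norm. to buffer vs Salinomycin 10uM.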
On the % scale 0 is the no-effect control and ±100 the full control effect.

| SMILES | activity change, negative = inhibition |
| --- | --- |
| CC(=O)Oc1ccc(N(C(C)=O)S(=O)(=O)c2ccc3ccccc3c2)cc1Br | active: -69.6% |
| COC(=O)c1ccccc1NC(=O)c1nc(S(=O)(=O)Cc2cccc(C)c2)ncc1Cl | active: -60.1% |
| CCOC(=O)c1nc(Nc2cc(Cl)ccc2OC)c2ccccc2n1 | active: -69.8% |
| COc1cc(CNC2CCCC2)cc(Cl)c1OCc1ccccc1F | inconclusive: -48% |
| CCCCN1C(=O)/C(=C2/Sc3ccccc3N2C)S/C1=N\c1ncn[nH]1 | active: -78.4% |
| COc1nc(-c2ccc(C)cc2)ccc1-c1noc(-c2cccnc2)n1 | inactive: -0.231% |
| COc1ccc(-c2cc(C(=O)NCCCn3ccnc3)no2)cc1 | inconclusive: -44.8% |
| CCN1CCN(CCCNC(=O)c2ccc3c(c2)NC(=O)/C(=C\c2cccc(C)c2)S3)CC1 | inconclusive: -52.4% |
| Cc1ccc(C23OC(=O)C(C)(C)C2OC(=O)C3(C)C)cc1 (stereo not drawn) | inactive: -23.4% |
| Cc1cc([N+](=O)[O-])ccc1NC(=O)C(C)N1CCN(c2ccccn2)CC1 (stereo not drawn) | inconclusive: -41.2% |
| NC(=O)c1cccc2c1C(=O)N(C1CCCCC1)C2 | inactive: -23.7% |
| COc1cc2c(cc1OC)C(COc1ccc(C(C)C)cc1)N(C(=O)c1ccc(S(=O)(=O)N3CCCC3)cc1)CC2 (stereo not drawn) | inactive: -2.18% |
| Cn1cnnc1Sc1ccc(CN2CCN(C3CCCC3)C(CCO)C2)o1 (stereo not drawn) | active: -68.7% |
| CCC(C)n1c(SCc2c(F)cccc2Cl)nc2ccsc2c1=O (stereo not drawn) | inconclusive: -45.8% |
| COc1ccc2c(c1)sc(=N)n2C | inconclusive: -50.9% |
| Cc1ccc(C(=O)CC(=O)c2cc(Cl)ccc2O)cc1 | inconclusive: -46.5% |
| Cc1ccc(C)c(COC(=O)c2cc([N+](=O)[O-])ccc2N2CCOCC2)c1 | inconclusive: -51.1% |
| CCOC(=O)c1sc(NC(=O)c2ccc(S(=O)(=O)N3CCCCCC3)cc2)nc1-c1ccccc1 | inconclusive: -49.5% |
| Cc1nn(C)cc1C(=O)Nc1c(C)nn(Cc2ccccc2Cl)c1C | active: -79.5% |
| O=C(/C=C/c1ccccc1Cl)NCc1cccs1 | inactive: 37.3% |
| Nc1c(Cl)ncnc1NCCc1ccc(O)cc1 | active: -69.8% |

For reference, three of the compounds above:

| SMILES | activity change, negative = inhibition |
| --- | --- |
| CCCCN1C(=O)/C(=C2/Sc3ccccc3N2C)S/C1=N\c1ncn[nH]1 | active: -78.4% |
| COc1nc(-c2ccc(C)cc2)ccc1-c1noc(-c2cccnc2)n1 | inactive: -0.231% |
| COc1ccc(-c2cc(C(=O)NCCCn3ccnc3)no2)cc1 | inconclusive: -44.8% |

Later entries

| SMILES | activity change, negative = inhibition |
| --- | --- |
| CCOC(=O)C1=C(C)NC(C)=C(C(=O)OC)C1c1cccc(Cl)c1Cl (stereo not drawn) | active: -67.8% |
| COc1ccc(-c2nc(-n3c(C)c(C(C)=O)c(C(C)=O)c3C)sc2C)cc1 | inconclusive: -57% |
| Nc1ccccc1NC(=O)c1ccccc1N | inactive: 48.3% |
| Cc1ccc(NC(=O)N(Cc2cccs2)Cc2cc3cc4c(cc3[nH]c2=O)OCO4)cc1 | inactive: 17.8% |
| C=CCNC(=O)c1ccccc1NC(=O)c1ccccc1SC | inconclusive: -49.5% |
| CCc1ccc(-n2nc(C)c3c2NC(=O)CSC3c2ccc(OC)cc2OC)cc1 (stereo not drawn) | active: -67.4% |
| CCCCNS(=O)(=O)c1ccc(NC(=O)Cc2ccc(OC)cc2)cc1 | active: -67% |
| O=C(COc1ccc(S(=O)(=O)N2CCOCC2)cc1)N1CCN(Cc2ccc3c(c2)OCO3)CC1 | active: -61.3% |
| COc1ccc(-c2nc(C)c(CCNC(=O)C(=O)Nc3c(C)cccc3C)s2)cc1OC | inconclusive: -55.5% |
| O=S(=O)(Nc1cccc2cccnc12)c1ccccc1 | active: -101% |
| CC1=C/C(=N\NC(=S)Nc2cccnc2)CC(C)(C)C1 | active: -71.9% |
| CC(C)c1ccc(NC(=O)c2ccc3c(c2)CCCN3S(C)(=O)=O)cc1 | active: -74.5% |
| O=C1CC(=O)Nc2cc(S(=O)(=O)Nc3cccc(C(F)(F)F)c3)ccc2N1 | inconclusive: -40.1% |
| C[C@H](CCC(=O)O)[C@H]1CC[C@H]2[C@@H]3C(=O)C[C@@H]4CC(=O)CC[C@]4(C)[C@H]3CC(=O)[C@]12C | inconclusive: -51.6% |
| Cc1ccccc1C(=O)NC1CCN(Cc2nnnn2C(C)(C)C)CC1 | inconclusive: -49.2% |
| CCOC(=O)c1ccc(NC(=S)NCC(O)c2ccccc2)cc1 (stereo not drawn) | inactive: -33.9% |
| O=C(COc1cccnc1[N+](=O)[O-])N1CCC(Cc2ccccc2)CC1 | active: -75.8% |
| CC(C)[C@H](NC(=O)OC(C)(C)C)c1cc(C(=O)NCCc2c[nH]c3ccccc23)c(N)s1 | inactive: -5.21% |
| CC(C)(C)C1CCc2c(sc(NC(=O)C3CCCO3)c2C(N)=O)C1 (stereo not drawn) | inconclusive: -54.8% |
| CC(C)(C)Cc1c(-c2ccc(F)cc2)nc2ccc(Cl)cn12 | inconclusive: -45.4% |
| O=C(NCc1nnc(SCC(=O)N2CCN(c3ccccc3)CC2)o1)c1c(F)cccc1Cl | inconclusive: -52.9% |

| SMILES | activity change, negative = inhibition |
| --- | --- |
| COC(=O)[C@@]1(Cc2ccc(OC)cc2)[C@H]2c3cc(C(=O)N(C)C)[nH]c3C[C@H]2CN1C(=O)c1ccccc1 | inactive: 0% |
| Cc1nc2sccn2c(=O)c1CCN1CCC(=C(c2ccc(F)cc2)c2ccc(F)cc2)CC1 | inactive: -2.79% |
| O=C(NCc1ccc(Cl)cc1)C1CCN(S(=O)(=O)c2ccc(N3CCCC3=O)cc2)CC1 | inconclusive: -42.4% |
| O=C(CCc1cn(Cc2ccccc2Cl)c2ccccc12)NC1CCCCC1 | active: -72.1% |
| CCN(CC)c1ccc(/C=N/N2CCN(Cc3ccc(Cl)cc3)CC2)c(O)c1 | inconclusive: -44.7% |
| CC(C)c1ccc(NC(=O)C2CCN(c3nc(-c4ccc(C(C)C)cc4)no3)CC2)cc1 | active: -71.9% |
| O=c1[nH][nH]c2c1C(C1CCCCC1)OC(C1CCCCC1)C2 (stereo not drawn) | inconclusive: -44.6% |
| Cc1c(C(=O)N2CCC(C)CC2)c(S(=O)(=O)NCc2ccc(Br)cc2)c(C)n1C | inactive: -18% |
| N/C(=N\OC(=O)COc1ccccc1)c1ccncc1 | inactive: 133% |
| Cc1ccc(S(=O)(=O)N2C[C@H]3n4c(=O)ccc(=O)n4C[C@H](OC(=O)NCC4CCCCC4)[C@@]3(O)C2)cc1 | active: -102% |
| Cc1cccc(N(C(=O)Cn2nnc3ccccc32)C(C(=O)NC(C)(C)C)c2ccsc2)c1C (stereo not drawn) | inconclusive: -43% |
| COc1ccc(Cl)cc1NC(=O)COc1cccc(-n2cnnn2)c1 | inconclusive: -49.6% |
| Cc1cc(C)cc(NC(=O)CCCN2C(=O)COc3ccc(C)cc32)c1 | inactive: 42.8% |
| Cn1cc(C(=O)c2cccc(Cl)c2Cl)cc1C#N | inconclusive: -53.8% |
| Cc1ccc(OCCSc2nc3ccccc3n2CC(=O)O)c(C(C)C)c1 | inconclusive: -41.8% |
| Cc1nc([N+](=O)[O-])c(C(=O)OCc2ccccc2F)n1C | inconclusive: -52.4% |
| Cc1cccc(N2CCN(C(=O)c3cc(COc4ccc(F)c(F)c4)on3)CC2)n1 | inactive: 3.58% |
| COc1ccc(C)cc1NC(=O)C1CCN(S(=O)(=O)c2ccc3[nH]c4c(c3c2)CCCCC4)CC1 | inconclusive: 0% |
| O=C(O)C/C(=C\c1ccc(N2CCOCC2)c([N+](=O)[O-])c1)c1nc2ccccc2s1 | inconclusive: -45.8% |
| Cc1nc2nc(SCC(=O)Nc3cccc(Cl)c3)nn2c(C)c1Cc1ccccc1 | inconclusive: -53% |

| SMILES | activity change, negative = inhibition |
| --- | --- |
| O=C(c1ccc(F)cc1)C1CCN(C(=S)Nc2ccccc2)CC1 | inconclusive: -48.1% |
| CC(C)Cn1cc(NC(=O)NCc2ccccc2)c2ccccc2c1=O | inactive: 6.52% |
| O=C(N/N=C/c1ccc2c(c1)OCO2)c1ccc2c(c1)OCO2 | inactive: 12.2% |
| CN(C)c1ccc(N=Nc2nc3ccccc3n2C)cc1 | inconclusive: 0% |
| O=C(COC(=O)CCN1C(=O)c2cccc([N+](=O)[O-])c2C1=O)NC1CCS(=O)(=O)C1 (stereo not drawn) | inconclusive: -50.9% |
| CCc1nc2ccc(C(=O)Nc3ccc(C(=O)N(C)C)cc3)cn2c1N(C)CCCc1ccccc1 | inconclusive: -52.3% |
| CCN(c1ccc(C(O)(C(=O)OC)C(F)(F)F)cc1)S(=O)(=O)c1ccccc1 (stereo not drawn) | inconclusive: -42.9% |
| Cc1ccc(S(=O)(=O)c2nc(-c3cccs3)oc2N2CCC(C(N)=O)CC2)cc1 | inactive: 17.8% |
| COc1ccc(Cl)cc1-n1c(=S)sc2c(=O)[nH]c(SCC(=O)NCC3CCCO3)nc21 (stereo not drawn) | inconclusive: -44.4% |
| Cc1cc(C(=O)COc2cccnc2[N+](=O)[O-])c(C)n1-c1ccccc1 | active: -98.8% |
| Cc1ccc(NC(=O)C(C)N=C2NS(=O)(=O)c3ccccc32)cc1F (stereo not drawn) | inactive: 26.3% |
| CCOC(=O)c1cc(-c2ccc(F)cc2)n(CC(=O)Nc2nccs2)c1C | inconclusive: -41% |
| CN1C(=O)[C@H]2[C@@H](C3CC3)N3C(=O)CN(CC4CC4)C(=O)[C@@]3(C)[C@H]2C1=O | inconclusive: -59.2% |
| COc1ccc(Nc2nc3c(S(=O)(=O)c4ccccc4)nnn3c3ccc(Cl)cc23)c(OC)c1 | inactive: 1.13% |
| Cc1ccc(C(=O)O[C@H](C(=O)O)[C@H](OC(=O)c2ccc(C)cc2)C(=O)O)cc1 | inactive: -36.5% |
| Cc1ccc(CNC(=O)Cn2c(=O)n(Cc3ccccc3)c(=O)c3c2c2cc(C)ccc2n3C)cc1 | inactive: 33.7% |
| N/C(Cc1ccc([N+](=O)[O-])cc1)=N\OC(=O)Cc1ccc(Cl)cc1 | inconclusive: -54% |
| CCOc1ccc(C2C(=O)N(C3CCCCCC3)CC(=O)N2CCC2=CCCCC2)cc1OC (stereo not drawn) | inconclusive: -59.6% |
| O=C(C(Cc1ccccc1)NS(=O)(=O)c1cccc2cccnc12)N1CCc2ccccc21 (stereo not drawn) | inconclusive: -40.7% |
| O=C1CC(N2CCC(Cc3ccccc3)CC2)C(=O)N1CCc1ccccc1 (stereo not drawn) | inconclusive: -55.8% |
